No constants are given. Whether binding was seen depends on the method and setting. In cells and extracts the contact can be indirect. Some binding calls cover weakened binding; strength is not graded here. For some assays here: Tags and fused reporters may be left off the sequences shown.
T1: Flag-IPA1 (rice (Oryza sativa)) (UniProt Q7EXZ2)
T1 sequence: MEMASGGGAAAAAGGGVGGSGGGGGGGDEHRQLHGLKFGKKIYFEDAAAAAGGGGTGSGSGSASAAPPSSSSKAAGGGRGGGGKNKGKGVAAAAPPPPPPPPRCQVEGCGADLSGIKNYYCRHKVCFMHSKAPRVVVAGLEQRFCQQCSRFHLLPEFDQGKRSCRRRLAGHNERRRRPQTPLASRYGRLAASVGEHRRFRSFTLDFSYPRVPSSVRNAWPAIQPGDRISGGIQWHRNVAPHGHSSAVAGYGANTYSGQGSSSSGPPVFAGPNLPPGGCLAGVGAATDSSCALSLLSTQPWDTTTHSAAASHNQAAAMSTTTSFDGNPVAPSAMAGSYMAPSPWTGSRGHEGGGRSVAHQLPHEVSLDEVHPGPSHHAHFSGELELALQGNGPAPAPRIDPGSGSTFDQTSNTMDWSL

T2: IPA1-YN (rice (Oryza sativa)) (UniProt Q7EXZ2)
T2 sequence: T1 sequence

B1: HA-GS2 (protein, UniProt Q6ZIK5 1-394)
chain: MAMPYASLSPAVADHRSSPAAATASLLPFCRSTPLSAGGGGVAMGEDAPMTARWPPAAAARLPPFTAAQYEELEQQALIYKYLVAGVPVPPDLVLPIRRGLDSLAARFYNHPALGYGPYFGKKLDPEPGRCRRTDGKKWRCSKEAAPDSKYCERHMHRGRNRSRKPVETQLVAQSQPPSSVVGSAAAPLAAASNGSSFQNHSLYPAIAGSNGGGGGRNMPSSFGSALGSQLHMDNAAPYAAVGGGTGKDLRYTAYGTRSLADEQSQLITEAINTSIENPWRLLPSQNSPFPLSSYSQLGALSDLGQNTPSSLSKVQRQPLSFFGNDYAAVDSVKQENQTLRPFFDEWPKGRDSWSDLADENANLSSFSGTQLSISIPMASSDFSAASSRSTNGD
B2: GS2-YC (protein, UniProt Q6ZIK5 1-394)
chain: B1 chain

What was measured:
[1] = target: T1, Flag-IPA1 (rice (Oryza sativa)); assay: co-IP; HA-GS2 and Flag-IPA1 co-transformed into rice protoplasts for 24 h; extract incubated with Flag beads at 4°C for 2 h; 150 mM NaCl, 50 mM Tris-HCl pH 7.5; blots with Flag and HA antibodies
[2] = target: T2, IPA1-YN (rice (Oryza sativa)); assay: split reporter; BiFC; GS2-YC and IPA1-YN co-infiltrated into leaves of Nicotiana benthamiana; confocal microscopy

Binder | binding [1] | binding [2]
B1 | binds | 
B2 |  | binds

From publication PMC11840411, “GS2 cooperates with IPA1 to control panicle architecture” (The New Phytologist, 2025)
